Laboratory results published in the supplement of paper PMC6411743.
± gives the standard deviation of the averaged measurements. The entries are a selection whose mix differs from that of the whole data set.

Amino acid sequences for entries named in this document (tags omitted). A change or cut given only in a name is not applied to a line headed by its entry.
UniProt Q5D1E8: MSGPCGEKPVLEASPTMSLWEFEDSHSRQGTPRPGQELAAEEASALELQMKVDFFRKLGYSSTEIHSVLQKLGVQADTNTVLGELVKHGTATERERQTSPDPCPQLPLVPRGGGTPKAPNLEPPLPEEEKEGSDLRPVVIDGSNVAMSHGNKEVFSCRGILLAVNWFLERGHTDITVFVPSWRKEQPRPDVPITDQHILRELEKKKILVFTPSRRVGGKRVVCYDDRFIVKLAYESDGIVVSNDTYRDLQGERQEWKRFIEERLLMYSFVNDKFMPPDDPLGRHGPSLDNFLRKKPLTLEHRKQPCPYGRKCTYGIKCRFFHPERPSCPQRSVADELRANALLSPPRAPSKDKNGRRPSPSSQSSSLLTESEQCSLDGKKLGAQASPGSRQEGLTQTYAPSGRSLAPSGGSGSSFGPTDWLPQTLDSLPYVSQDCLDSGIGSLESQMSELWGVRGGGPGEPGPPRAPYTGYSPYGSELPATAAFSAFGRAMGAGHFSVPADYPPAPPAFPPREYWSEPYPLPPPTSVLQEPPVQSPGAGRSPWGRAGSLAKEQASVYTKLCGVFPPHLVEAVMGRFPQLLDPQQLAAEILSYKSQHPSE
UniProt Q5QJ74: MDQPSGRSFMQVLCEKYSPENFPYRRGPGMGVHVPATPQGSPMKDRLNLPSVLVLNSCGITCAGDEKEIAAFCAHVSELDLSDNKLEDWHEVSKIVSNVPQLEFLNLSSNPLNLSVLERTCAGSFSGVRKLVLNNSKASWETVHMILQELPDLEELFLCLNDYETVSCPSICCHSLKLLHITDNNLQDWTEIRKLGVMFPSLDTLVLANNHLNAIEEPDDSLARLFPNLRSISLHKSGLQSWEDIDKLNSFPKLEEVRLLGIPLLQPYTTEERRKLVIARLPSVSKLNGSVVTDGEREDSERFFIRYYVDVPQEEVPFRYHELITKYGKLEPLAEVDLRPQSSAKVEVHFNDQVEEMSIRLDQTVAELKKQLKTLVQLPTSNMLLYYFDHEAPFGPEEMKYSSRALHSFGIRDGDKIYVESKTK
UniProt Q15404: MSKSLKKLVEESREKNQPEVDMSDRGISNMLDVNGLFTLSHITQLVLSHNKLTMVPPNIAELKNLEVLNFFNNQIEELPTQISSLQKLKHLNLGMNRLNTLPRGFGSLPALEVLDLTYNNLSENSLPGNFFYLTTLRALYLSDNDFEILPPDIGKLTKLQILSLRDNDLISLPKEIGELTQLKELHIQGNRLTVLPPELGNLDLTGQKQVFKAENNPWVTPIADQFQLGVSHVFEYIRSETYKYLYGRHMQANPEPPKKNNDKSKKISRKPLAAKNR
UniProt Q5RKV6, whole entry: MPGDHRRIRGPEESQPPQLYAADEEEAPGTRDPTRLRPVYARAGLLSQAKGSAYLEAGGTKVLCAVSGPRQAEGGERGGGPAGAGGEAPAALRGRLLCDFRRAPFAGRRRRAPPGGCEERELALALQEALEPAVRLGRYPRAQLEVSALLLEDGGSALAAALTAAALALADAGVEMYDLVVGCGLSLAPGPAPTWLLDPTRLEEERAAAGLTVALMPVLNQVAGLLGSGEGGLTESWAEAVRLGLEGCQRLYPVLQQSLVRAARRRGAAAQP
UniProt Q5T011: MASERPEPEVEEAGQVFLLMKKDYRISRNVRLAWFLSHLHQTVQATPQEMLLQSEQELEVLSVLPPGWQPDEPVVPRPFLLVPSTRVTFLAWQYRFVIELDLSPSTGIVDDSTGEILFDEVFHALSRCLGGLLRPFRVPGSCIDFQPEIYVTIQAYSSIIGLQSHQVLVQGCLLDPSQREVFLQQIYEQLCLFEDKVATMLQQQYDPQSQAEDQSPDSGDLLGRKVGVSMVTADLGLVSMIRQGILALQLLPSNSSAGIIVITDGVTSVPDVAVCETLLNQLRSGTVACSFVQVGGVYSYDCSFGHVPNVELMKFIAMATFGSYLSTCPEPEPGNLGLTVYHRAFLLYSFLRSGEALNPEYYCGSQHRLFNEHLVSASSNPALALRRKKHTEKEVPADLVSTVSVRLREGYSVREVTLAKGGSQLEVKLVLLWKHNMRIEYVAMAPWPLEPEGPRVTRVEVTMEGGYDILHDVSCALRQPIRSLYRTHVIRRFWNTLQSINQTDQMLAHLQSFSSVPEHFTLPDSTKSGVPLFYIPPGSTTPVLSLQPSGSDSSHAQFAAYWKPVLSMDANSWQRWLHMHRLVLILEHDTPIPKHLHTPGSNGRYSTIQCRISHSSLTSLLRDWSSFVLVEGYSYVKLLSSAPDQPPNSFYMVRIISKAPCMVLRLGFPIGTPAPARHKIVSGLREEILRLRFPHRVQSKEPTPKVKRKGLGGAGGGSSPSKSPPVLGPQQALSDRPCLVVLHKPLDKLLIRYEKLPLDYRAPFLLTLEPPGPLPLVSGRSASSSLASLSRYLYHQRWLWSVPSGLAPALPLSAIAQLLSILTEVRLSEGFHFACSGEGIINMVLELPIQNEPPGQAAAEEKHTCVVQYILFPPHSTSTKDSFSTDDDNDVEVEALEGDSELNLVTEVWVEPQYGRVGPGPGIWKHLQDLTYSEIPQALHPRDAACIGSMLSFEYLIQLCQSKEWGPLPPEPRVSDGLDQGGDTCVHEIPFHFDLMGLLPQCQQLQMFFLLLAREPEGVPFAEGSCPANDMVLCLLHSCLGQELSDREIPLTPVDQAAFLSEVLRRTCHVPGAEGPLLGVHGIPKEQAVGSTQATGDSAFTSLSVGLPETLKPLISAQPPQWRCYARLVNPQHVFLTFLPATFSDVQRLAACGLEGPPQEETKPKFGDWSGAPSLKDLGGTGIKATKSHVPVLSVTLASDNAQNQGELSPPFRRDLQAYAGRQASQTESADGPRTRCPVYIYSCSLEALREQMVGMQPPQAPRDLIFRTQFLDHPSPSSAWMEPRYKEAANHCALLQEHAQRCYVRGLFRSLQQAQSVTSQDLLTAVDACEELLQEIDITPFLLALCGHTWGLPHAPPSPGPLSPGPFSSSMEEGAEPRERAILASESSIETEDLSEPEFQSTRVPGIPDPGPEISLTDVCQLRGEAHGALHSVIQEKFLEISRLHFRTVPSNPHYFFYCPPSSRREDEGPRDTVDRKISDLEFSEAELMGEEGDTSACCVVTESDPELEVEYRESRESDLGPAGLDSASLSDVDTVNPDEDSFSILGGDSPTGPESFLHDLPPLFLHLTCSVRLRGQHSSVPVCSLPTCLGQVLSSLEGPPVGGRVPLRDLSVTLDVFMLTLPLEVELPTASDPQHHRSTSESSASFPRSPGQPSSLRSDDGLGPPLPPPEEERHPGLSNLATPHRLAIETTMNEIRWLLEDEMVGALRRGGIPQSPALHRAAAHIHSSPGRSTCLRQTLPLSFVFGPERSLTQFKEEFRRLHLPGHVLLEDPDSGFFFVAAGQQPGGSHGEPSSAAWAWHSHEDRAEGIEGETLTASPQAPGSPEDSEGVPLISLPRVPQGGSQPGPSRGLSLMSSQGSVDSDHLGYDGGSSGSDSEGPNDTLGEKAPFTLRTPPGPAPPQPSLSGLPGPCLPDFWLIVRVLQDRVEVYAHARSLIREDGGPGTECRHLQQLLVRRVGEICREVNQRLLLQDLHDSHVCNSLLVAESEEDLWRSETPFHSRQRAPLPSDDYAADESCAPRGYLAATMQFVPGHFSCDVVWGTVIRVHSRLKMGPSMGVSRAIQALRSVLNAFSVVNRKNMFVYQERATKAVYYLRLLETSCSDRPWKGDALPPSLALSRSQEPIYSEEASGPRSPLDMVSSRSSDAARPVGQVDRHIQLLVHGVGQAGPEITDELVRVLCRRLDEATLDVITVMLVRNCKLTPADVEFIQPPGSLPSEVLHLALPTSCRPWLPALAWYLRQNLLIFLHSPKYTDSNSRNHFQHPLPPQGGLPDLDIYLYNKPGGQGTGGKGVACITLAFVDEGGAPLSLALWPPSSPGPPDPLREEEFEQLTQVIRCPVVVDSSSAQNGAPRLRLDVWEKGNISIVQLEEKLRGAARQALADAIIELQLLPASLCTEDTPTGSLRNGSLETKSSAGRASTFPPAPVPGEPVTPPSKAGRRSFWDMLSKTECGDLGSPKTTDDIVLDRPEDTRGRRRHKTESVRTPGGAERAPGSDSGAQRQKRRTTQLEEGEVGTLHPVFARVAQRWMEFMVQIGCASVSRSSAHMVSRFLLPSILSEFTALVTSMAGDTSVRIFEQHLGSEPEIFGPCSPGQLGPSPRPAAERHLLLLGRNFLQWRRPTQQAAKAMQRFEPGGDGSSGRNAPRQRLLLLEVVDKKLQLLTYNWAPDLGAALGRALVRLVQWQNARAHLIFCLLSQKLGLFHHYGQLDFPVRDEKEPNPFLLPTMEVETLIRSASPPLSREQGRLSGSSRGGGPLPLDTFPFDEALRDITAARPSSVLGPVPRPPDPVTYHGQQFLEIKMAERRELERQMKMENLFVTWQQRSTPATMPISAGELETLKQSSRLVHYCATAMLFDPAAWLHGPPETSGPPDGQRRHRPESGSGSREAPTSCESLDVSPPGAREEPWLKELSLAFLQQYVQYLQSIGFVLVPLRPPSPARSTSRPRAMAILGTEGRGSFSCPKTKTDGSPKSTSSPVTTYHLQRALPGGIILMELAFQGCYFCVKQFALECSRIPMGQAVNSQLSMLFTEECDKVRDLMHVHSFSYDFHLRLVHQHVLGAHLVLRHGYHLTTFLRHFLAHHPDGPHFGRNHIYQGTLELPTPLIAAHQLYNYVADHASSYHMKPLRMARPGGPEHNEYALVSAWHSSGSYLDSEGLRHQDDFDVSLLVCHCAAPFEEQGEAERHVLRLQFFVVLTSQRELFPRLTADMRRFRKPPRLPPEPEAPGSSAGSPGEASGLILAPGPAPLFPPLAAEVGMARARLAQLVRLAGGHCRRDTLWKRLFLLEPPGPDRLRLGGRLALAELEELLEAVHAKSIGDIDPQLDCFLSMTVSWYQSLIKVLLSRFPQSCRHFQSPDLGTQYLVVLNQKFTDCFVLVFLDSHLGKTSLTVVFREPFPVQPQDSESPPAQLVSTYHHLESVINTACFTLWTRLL
UniProt Q5T5C0: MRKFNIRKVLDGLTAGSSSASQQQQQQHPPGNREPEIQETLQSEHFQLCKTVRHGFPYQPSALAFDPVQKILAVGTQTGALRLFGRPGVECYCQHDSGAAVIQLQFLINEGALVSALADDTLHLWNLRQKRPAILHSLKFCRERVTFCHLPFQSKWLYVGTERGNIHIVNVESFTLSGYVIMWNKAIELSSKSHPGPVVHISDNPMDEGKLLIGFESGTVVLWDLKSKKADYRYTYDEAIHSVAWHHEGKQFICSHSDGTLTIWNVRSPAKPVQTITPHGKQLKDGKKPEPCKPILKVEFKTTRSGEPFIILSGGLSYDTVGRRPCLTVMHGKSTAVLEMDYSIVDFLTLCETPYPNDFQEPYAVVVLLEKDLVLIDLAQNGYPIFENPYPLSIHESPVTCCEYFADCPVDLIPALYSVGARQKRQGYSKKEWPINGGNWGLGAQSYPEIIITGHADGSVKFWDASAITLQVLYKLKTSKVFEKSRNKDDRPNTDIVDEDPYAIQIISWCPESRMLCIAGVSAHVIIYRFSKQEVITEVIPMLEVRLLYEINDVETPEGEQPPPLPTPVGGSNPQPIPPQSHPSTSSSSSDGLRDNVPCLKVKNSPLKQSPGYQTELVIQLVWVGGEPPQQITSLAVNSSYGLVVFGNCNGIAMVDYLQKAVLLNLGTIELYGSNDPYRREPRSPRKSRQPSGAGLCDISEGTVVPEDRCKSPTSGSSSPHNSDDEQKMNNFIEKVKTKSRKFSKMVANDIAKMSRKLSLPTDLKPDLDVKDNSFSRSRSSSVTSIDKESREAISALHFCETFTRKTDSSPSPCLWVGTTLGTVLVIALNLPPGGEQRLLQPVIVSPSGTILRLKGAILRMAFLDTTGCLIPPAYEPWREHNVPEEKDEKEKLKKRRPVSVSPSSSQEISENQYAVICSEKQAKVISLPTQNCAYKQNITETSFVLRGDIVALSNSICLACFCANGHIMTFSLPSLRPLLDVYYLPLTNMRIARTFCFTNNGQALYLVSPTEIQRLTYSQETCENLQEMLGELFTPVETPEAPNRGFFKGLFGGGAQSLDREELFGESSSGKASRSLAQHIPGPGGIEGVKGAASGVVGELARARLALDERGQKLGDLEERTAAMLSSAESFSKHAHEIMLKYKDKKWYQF
UniProt Q16795, whole entry: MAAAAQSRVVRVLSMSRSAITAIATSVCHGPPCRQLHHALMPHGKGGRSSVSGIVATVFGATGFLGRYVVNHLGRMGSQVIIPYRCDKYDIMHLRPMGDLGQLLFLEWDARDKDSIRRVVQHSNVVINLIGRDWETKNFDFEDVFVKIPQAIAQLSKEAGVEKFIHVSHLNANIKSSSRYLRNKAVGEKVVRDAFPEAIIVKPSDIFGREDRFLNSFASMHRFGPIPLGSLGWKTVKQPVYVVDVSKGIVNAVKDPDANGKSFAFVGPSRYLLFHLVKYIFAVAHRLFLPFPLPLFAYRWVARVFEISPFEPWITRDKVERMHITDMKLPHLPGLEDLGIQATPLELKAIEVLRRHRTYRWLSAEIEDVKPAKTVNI

Compound: Nc1ncnc2c1ncn2[C@@H]1O[C@H](COP(=O)(O)OP(=O)(O)NP(=O)(O)O)[C@@H](O)[C@H]1O [adenylyl imidodiphosphate]
Experiment: NP40-soluble protein abundance relative to vehicle (solubility fold change) (ratio); higher = more soluble protein in presence of AMP-PNP
How it was run: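 Crude Jurkat lysate, prepared by Dounce homogenisation, was exposed to eight concentrations from 0.1 to 10 mM for 10 min at room temperature and then 3 min at 37 °C. Solubilisation used 0.8% NP40 with benzonase for 60 min at 4 °C, followed by ultracentrifugation and TMT labelling of the supernatant for LC-MS/MS. After vsn normalisation of intensities, each value is the fold change against the detergent-processed vehicle within each replicate, across three independent experiments.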

Target	NP40-soluble protein abundance (concentration: 1mM)	NP40-soluble protein abundance (concentration: 2mM)	NP40-soluble protein abundance (concentration: 4mM)	NP40-soluble protein abundance (concentration: 6mM)	NP40-soluble protein abundance (concentration: 8mM)	NP40-soluble protein abundance (concentration: 10mM)
ZC3H12A (UniProt Q5D1E8)	1.01 ± 0.013	1.028 ± 0.0099	1 ± 0.011	1 ± 0.028	0.996 ± 0.03	0.967 ± 0.015
Q5QPM7 and related entries (UniProt Q92530)	1.01 ± 0.049	1.06 ± 0.074	1.04 ± 0.049	1 ± 0.029	1.01 ± 0.05	1.02 ± 0.042
TBCEL (UniProt Q5QJ74)	0.9994 ± 0.0047	0.974 ± 0.015	0.9867 ± 0.0053	0.982 ± 0.022	1.02 ± 0.038	0.964 ± 0.033
UniProt Q15291 and related entries	1.01 ± 0.065	0.982 ± 0.052	1.03 ± 0.043	1.04 ± 0.063	1.08 ± 0.071	1.04 ± 0.062
UniProt Q3T8J9 and related entries	0.988 ± 0.026	1.01 ± 0.042	0.983 ± 0.032	1.01 ± 0.021	0.9804 ± 0.0084	0.985 ± 0.032
PGGHG (UniProt Q32M88)	1.008 ± 0.009	0.979 ± 0.023	1.01 ± 0.02	0.995 ± 0.017	0.998 ± 0.025	0.982 ± 0.026
RSU1 (UniProt Q15404)	1 ± 0.024	0.995 ± 0.032	1.02 ± 0.035	1.01 ± 0.053	1.01 ± 0.045	1.03 ± 0.073
UniProt Q1MSJ5 and related entries	1.016 ± 0.0053	1.029 ± 0.0052	0.99431 ± 0.00099	1.01 ± 0.024	1.02 ± 0.028	1.01 ± 0.011
UniProt Q16698-2|Q16698	1.06 ± 0.085	1.11 ± 0.058	1.19 ± 0.08	1.21 ± 0.014	1.26 ± 0.041	1.25 ± 0.02
EXOSC6 (UniProt Q5RKV6)	1.04 ± 0.032	1.03 ± 0.041	1.08 ± 0.018	1.12 ± 0.036	1.14 ± 0.052	1.14 ± 0.074
UniProt Q5SQI0 and related entries	1 ± 0.024	1 ± 0.059	0.99 ± 0.032	0.99 ± 0.027	1 ± 0.012	0.995 ± 0.029
NOM1 (UniProt Q5C9Z4)	1.026 ± 0.0033	1.04 ± 0.044	1.06 ± 0.056	1.06 ± 0.046	1.04 ± 0.062	1.04 ± 0.062
UniProt Q5T0F9-2	1.05 ± 0.055	1.09 ± 0.026	1.09 ± 0.033	1.06 ± 0.023	1.05 ± 0.012	1.08 ± 0.035
UniProt Q52LJ0-2	0.966 ± 0.054	0.984 ± 0.034	0.985 ± 0.042	0.984 ± 0.029	0.998 ± 0.037	0.953 ± 0.048
FAM98C (UniProt Q17RN3)	0.976 ± 0.023	0.962 ± 0.024	0.988 ± 0.015	1.01 ± 0.029	1.02 ± 0.05	1.01 ± 0.036
UniProt Q3L8U1 and related entries	0.9909 ± 0.0089	1.02 ± 0.069	0.994 ± 0.053	0.996 ± 0.042	0.964 ± 0.013	0.964 ± 0.012
UniProt Q15652 and related entries	1.001 ± 0.0051	1.04 ± 0.013	1.062 ± 0.0066	1.06 ± 0.025	1.061 ± 0.0031	1.06 ± 0.021
UniProt Q5T011 and related entries	0.882 ± 0.14	0.91 ± 0.071	0.912 ± 0.076	0.864 ± 0.16	0.809 ± 0.045	0.803 ± 0.056
UniProt Q4ADV7 and related entries	0.943 ± 0.026	0.963 ± 0.043	0.9491 ± 0.0042	0.937 ± 0.029	0.924 ± 0.014	0.92 ± 0.011
UniProt Q15599 and related entries	1.01 ± 0.046	1.05 ± 0.042	1.04 ± 0.035	1.05 ± 0.038	1.04 ± 0.038	1.03 ± 0.045
UniProt Q5T5C0 and related entries	1.014 ± 0.0016	1.01 ± 0.062	0.995 ± 0.011	1.01 ± 0.024	0.971 ± 0.024	1 ± 0.015
NDUFA9 (UniProt Q16795)	0.936 ± 0.015	0.876 ± 0.1	0.908 ± 0.069	0.911 ± 0.091	0.93 ± 0.097	0.884 ± 0.15

Some of the entries so far, field by field.
RSU1 (UniProt Q15404)
  NP40-soluble protein abundance (concentration: 1mM): 1 ± 0.024
  NP40-soluble protein abundance (concentration: 2mM): 0.995 ± 0.032
  NP40-soluble protein abundance (concentration: 4mM): 1.02 ± 0.035
  NP40-soluble protein abundance (concentration: 6mM): 1.01 ± 0.053
  NP40-soluble protein abundance (concentration: 8mM): 1.01 ± 0.045
  NP40-soluble protein abundance (concentration: 10mM): 1.03 ± 0.073
UniProt Q5T011 and related entries
  NP40-soluble protein abundance (concentration: 1mM): 0.882 ± 0.14
  NP40-soluble protein abundance (concentration: 2mM): 0.91 ± 0.071
  NP40-soluble protein abundance (concentration: 4mM): 0.912 ± 0.076
  NP40-soluble protein abundance (concentration: 6mM): 0.864 ± 0.16
  NP40-soluble protein abundance (concentration: 8mM): 0.809 ± 0.045
  NP40-soluble protein abundance (concentration: 10mM): 0.803 ± 0.056
